Primary screen of a compound library

Amino acid sequences for entries named in this document (tags omitted).
UniProt E9BF75, entry or part of it: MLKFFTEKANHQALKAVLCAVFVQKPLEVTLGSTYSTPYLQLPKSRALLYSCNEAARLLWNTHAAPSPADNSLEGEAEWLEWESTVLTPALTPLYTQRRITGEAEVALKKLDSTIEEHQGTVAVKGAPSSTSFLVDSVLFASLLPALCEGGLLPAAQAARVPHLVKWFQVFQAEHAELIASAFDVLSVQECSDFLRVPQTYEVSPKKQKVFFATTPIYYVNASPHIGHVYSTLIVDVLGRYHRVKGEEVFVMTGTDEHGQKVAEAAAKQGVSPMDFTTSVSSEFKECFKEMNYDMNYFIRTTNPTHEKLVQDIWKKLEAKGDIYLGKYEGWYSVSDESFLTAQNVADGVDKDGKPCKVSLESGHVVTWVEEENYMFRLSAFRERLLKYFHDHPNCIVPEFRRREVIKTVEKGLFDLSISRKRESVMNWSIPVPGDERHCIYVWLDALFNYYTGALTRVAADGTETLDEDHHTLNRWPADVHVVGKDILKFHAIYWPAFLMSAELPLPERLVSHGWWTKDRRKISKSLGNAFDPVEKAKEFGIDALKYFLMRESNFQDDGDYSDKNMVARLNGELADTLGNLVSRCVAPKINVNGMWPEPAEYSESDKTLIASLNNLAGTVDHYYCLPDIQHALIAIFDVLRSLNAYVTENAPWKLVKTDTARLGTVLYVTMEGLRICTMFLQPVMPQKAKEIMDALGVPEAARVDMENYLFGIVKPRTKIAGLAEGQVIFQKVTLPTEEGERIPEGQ

The values are deposited in ChEMBL (CHEMBL3988442, “University of Dundee, Small-Polar-MMV Screening Library” (2021)).

Results are percentages, as filed.
The record does not define 0% and 100%; most values in the screen are far below 50% and negative numbers occur (in some assays of this library far below -100).
The compounds are a random part of those screened.

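Primary screen of methionyl-tRNA synthetase; the read-out is not stated. Target: Methionyl-tRNA synthetase (putative), Leishmania donovani (UniProt E9BF75). The test concentration is not given. The values are filed as inhibition. Of about 68,000 compounds tested this way, about 24 (0.035%) reached 50% or more in at least one test.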

Cc1cc(Cl)ccc1C(=O)N[C@H]1CN(S(C)(=O)=O)C[C@@H]1C1CC1 read 3.064%. For CC(Nc1ccc(Br)cc1)c1nc(C2CC2)no1 (stereo not given) the result was 8.527%. With CC(Oc1cccc(Cl)c1)C(=O)Nc1cnn(CC(=O)NC2CC2)c1 (stereo not given) the screen gave 14.89%. CCOCCCn1c(NC(=O)c2cc(C)no2)nc2ccccc21 read 11.36%.

CCNC(c1cccnc1)c1ccc(F)cc1F (stereo not given) gave 17.09%. With CCc1csc(C2CCCN(C(=O)COc3cc(C)on3)C2)n1 (stereo not given) the screen gave 14.74%. CC(C)Nc1nc2c(cc1C(=O)NCC1CC1)CCN(C)CC2 gave 5.376%. CCC[C@@H]1CN(Cc2cc3c(cc2OC)OCCO3)C[C@H]1C(=O)O read 9.358%.

COc1ccc(CN2C[C@H]3CN(c4ccsc4)C(=O)[C@H]3C2)cc1 read 10.44%. Result for O=c1[nH]nc(-c2cccs2)c2sc(N3CCOCC3)nc12 was 8.075%. CC(C)CC(NC(=O)c1cnn(C)c1)C(=O)Nc1cc[nH]n1 (stereo not given) gave 9.429%. Result for Nc1cccnc1N1CCC(O)CC1 was 4.852%.

Result for O=C(C1CCCCC1)N1CCN(Cc2nc(-c3ccco3)no2)CC1 was 12.01%. For CC(C)(C)C(=O)NS(=O)(=O)c1ccc(F)cc1C(F)(F)F the result was 13.58%. With COCC(=O)N1CCCC1c1csc(Nc2cnccn2)n1 (stereo not given) the screen gave 10.12%. Cc1cc(NC(=O)N2CCN(C)CC2C)n(C)n1 (stereo not given) read 6.522%.

CC(C)c1noc(CN(Cc2ccc(F)cc2)C2CC2)n1 gave 7.357%. With CCCSc1nc(O)c(CC)c(=O)n1-c1ccccc1 the screen gave 3.093%. With COC(=O)NCc1ccc(NC(=O)CC2=CCCCC2)cc1 the screen gave 13.59%. COc1ccccc1CC(=O)NCc1ccnc(NC2CC2)c1 gave 9.582%.

Result for O=C(Cc1ccccc1Br)NCC(=O)Nc1cn[nH]c1 was 6.044%. Result for O=C(NC1CCCNC1=O)c1ccc2nc(-c3ccc(F)cc3)cn2c1 (stereo not given) was 3.727%. CCN1CCC(CC(=O)N(C)CC(=O)c2ccc(O)cc2)CC1 gave 18.56%. With Cn1cc(CNC2CCc3c(ccc(=O)n3C)C2)cn1 (stereo not given) the screen gave 14.08%.

Cc1ccc(N2CCC(c3cc(Cc4ccccc4)n[nH]3)CC2)nn1 gave 15.97%. For COC(=O)c1cnc2c(c(C)nn2C)c1OC the result was 8.056%. For CN(C)C[C@@H]1C[C@@H]2CN(c3ncc(F)cn3)CC[C@@H]2N1C the result was 8.014%. O=C(C1CCCCC1)N1CCC2(CCCN2CC2CC2)CC1 gave 13.13%.

CCc1nc(C2CCCN2Cc2ncc(C)c(OC)c2C)no1 (stereo not given) gave 10.89%. For Cc1cnn(C2CCCN(C(=O)c3ccc(N4CCCC4)nc3)C2)c1 (stereo not given) the result was 13.39%. Result for CCc1nc(NC(=O)NCCc2cscn2)nn1C was 17.01%. Cc1cc(C(=O)N2CCN(C(=O)CC(C)C)[C@@H]3CS(=O)(=O)C[C@@H]32)no1 gave 20.21%.

With Cc1ccc(CNCC2CNc3cc(C)nn3C2)cn1 (stereo not given) the screen gave 12.57%. Result for O=C1NCC2(CCCN(Cc3ccccc3OCCO)C2)O1 (stereo not given) was 6.41%. For CC(=O)N(c1ccc(F)cc1)c1nc(CN2CCCC2C(C)C)cs1 (stereo not given) the result was 13.89%. For CCN1CC(C)(C)CN(C(=O)CCc2ccccc2)CC1=O the result was 4.11%.

With COCC(=O)Nc1ccc2c(c1)C1(CCOCC1)CN2CCF the screen gave 19.74%. For CC1CS(=O)(=O)CCN1CCCc1ccc(C(F)(F)F)cc1 (stereo not given) the result was 5.391%. Cc1cc(C)n(CC2CCCN2C(=O)c2ccc(NC3CC3)nc2)n1 (stereo not given) read 10.26%. For COc1ccccc1OC1CCN(c2ccncc2)CC1 the result was 1.579%.

Cn1ccnc1N1CCN(C(=O)Cc2ccc(F)cc2)CC1 gave 20.59%. For O=C1NCCN1C1CCN(CCOc2ccccc2F)CC1 the result was 13.65%. With COCCCn1ccc(NC(=O)NCCc2cccnc2)n1 the screen gave 1.272%. O=C(c1ccc2sccc2c1)N1CCC(C(=O)O)(n2ccnc2)CC1 gave -0.7634%.

For CC(CNC(=O)c1ccc(Cl)cc1F)N1CCN(C)CC1 (stereo not given) the result was 3.046%. CCOCc1ncn2c1CN(C(=O)Nc1ccc(CC)cc1)CC2 gave 3.753%. With Cc1cc(NCCc2c(C)n[nH]c2C)nc(-c2cccnc2)n1 the screen gave 3.81%. O=C(O)c1cc(Br)cnc1OCC1CC1 gave 18.33%.

CN(C)Cc1ccccc1Cn1cncc1-c1cnn(C)c1 gave 14.89%. COCCN1CCC(CNC(=O)C2(c3cccc(C)c3)CC2)CC1 read 13.89%. O=C(NCN1CCc2ccccc2C1)c1cnccn1 read 10.04%. Result for CC1CC(NS(=O)(=O)c2ccc(C(F)(F)F)nc2)C1 (stereo not given) was 4.762%.